Experimental data reported in PubChem BioAssay AID540276 (National Center for Advancing Translational Sciences (NCATS), 2011).
Screen size: about 300,000 compounds; about 5,400 (1.8%) were called active. The inconclusive results got no clear call from the source; some entries with a clear call stand among them for comparison. Calls follow the shape of the full dose curve; tested in HEK293 cells. Potencies of inconclusive entries are doubtful fits and often do not repeat.

Test: qHTS for inhibitors of binding or entry into cells for Marburg Virus
Conditions: Marburg virus pseudotyped entry inhibition, cell reporter; activity change, negative = inhibition: at 37.8 µM (top of the series) unless noted
% is scaled to controls: 0 for no effect and ±100 for the full control effect; potency is read from the fitted curve at half-maximal effect.

| SMILES | Potency | activity change, negative = inhibition |
| --- | --- | --- |
| COc1ccc2cc(CN(C(=O)Nc3ccccc3OC)C3CCCC3)c(=O)[nH]c2c1 | active: 8.91 µM |  |
| COc1ccc(CN2CC=C(c3ccc(F)cc3)CC2)cc1Br | inconclusive: 35.5 µM [inhibitor, single point] |  |
| Cc1ccc(C(C(=O)NC2CCCC2)N(C(=O)Cc2cccs2)c2ccc(C)c(C)c2)o1 (stereo not given) | inconclusive: 20.6 µM [inhibitor, partial curve, poor fit] |  |
| O=C(Nc1ccc(N2CCN(C(=O)c3ccccc3F)CC2)cc1)c1cncc(Br)c1 | inconclusive: 2 µM [inhibitor, partial curve, poor fit] |  |
| CCOC(=O)c1[nH]c2c(OCC)nc(OCC)nc2c1Br | inconclusive: 0.355 µM [activator, partial curve, poor fit] |  |
| Cc1ccc(C)c(N(C(=O)c2ccco2)C(C(=O)NC2CCCC2)c2ccco2)c1 (stereo not given) | inconclusive: 35.5 µM [inhibitor, partial curve, poor fit] |  |
| Cc1cc(C(=O)C(C)OC(=O)c2ccc(NC(=O)CC#N)cc2)c(C)n1-c1ccccc1 (stereo not given) | inconclusive: 11.2 µM [inhibitor, partial curve, poor fit] |  |
| O=C(CC(=O)Nc1ccccn1)Nc1ccccn1 |  | inactive: 1.66% |
| CCOc1ccccc1NC(=O)C(Sc1ccccc1)c1ccccc1 (stereo not given) | inconclusive: 35.5 µM [inhibitor, single point] |  |
| CCCCn1c(CCC(=O)O)nc2cc(S(=O)(=O)N(CC)CC)ccc21 |  | inactive: -0.173% [at 46.1 µM] |
| Cc1cc(C)c(C(=O)/C=C/c2cccc3ccccc23)c(=O)[nH]1 | inconclusive: 12.6 µM [inhibitor, partial curve, poor fit] |  |
| O=c1oc2ccccc2c(O)c1C=NCc1ccccn1 |  | inactive: -11.9% |
| CCOC(=O)c1c(NC(=O)CSc2nc3ccccc3c(=O)n2-c2ccc(F)cc2)sc(C(C)=O)c1C |  | inactive: -7.89% |
| O=C(NCC1CCCO1)c1ccc2c(=O)n(Cc3ccc(Cl)cc3)c(=S)[nH]c2c1 (stereo not given) | inconclusive: 0.316 µM [inhibitor, single point] |  |
| COc1ccc(C(=O)Nc2ccnn2C2CCN(C(=O)c3cnsn3)CC2)cc1 |  | inactive: 17.7% |
| CCOC(=O)N1CCC(NC(=O)c2cn(-c3ccc(OC)cc3)c(=O)c3ccccc23)CC1 | inconclusive: 0.103 µM [inhibitor, full curve, poor fit] |  |
| O=C(CSc1nc2ccc(Cl)cc2[nH]1)Nc1ccc2[nH]c(=O)[nH]c2c1 | inconclusive: 6.31 µM [activator, single point] |  |
| O=C(CNC(=O)C12CC3CC(CC(C3)C1)C2)NC1=NCCS1 |  | inactive: 27.3% |
| CCCSc1nc(-c2ccccc2)cc(C(F)(F)F)c1C#N |  | inactive: -4.67% |
| CC(C)Cc1ccc(/C=C/C(=O)N2CCCCC2)cc1 | inconclusive: 1.41 µM [activator, full curve, poor fit] |  |
| COc1ccc(C(=O)COc2nc(C)cc(C)c2C#N)cc1 | inconclusive: 0.58 µM [inhibitor, single point] |  |
| Nc1ccc(-c2nc3c(Cl)cc(N)cc3[nH]2)cc1 | inconclusive: 35.5 µM [inhibitor, single point] |  |

Of the compounds above, two have a thiophene ring, fused or not.

| SMILES | Potency | activity change, negative = inhibition |
| --- | --- | --- |
| Cc1ccc(C(C(=O)NC2CCCC2)N(C(=O)Cc2cccs2)c2ccc(C)c(C)c2)o1 (stereo not given) | inconclusive: 20.6 µM [inhibitor, partial curve, poor fit] |  |
| CCOC(=O)c1c(NC(=O)CSc2nc3ccccc3c(=O)n2-c2ccc(F)cc2)sc(C(C)=O)c1C |  | inactive: -7.89% |

The list continues:

| SMILES | Potency | activity change, negative = inhibition |
| --- | --- | --- |
| COc1ccc(NS(=O)(=O)c2cc(NC(=O)CCNC(C)=O)ccc2N2CCOCC2)cc1 |  | inactive: -21.8% [at 46.1 µM] |
| COC(=O)c1ccc(NC(=O)Nc2cccc(F)c2)cc1 | inconclusive: 15.8 µM [inhibitor, single point] |  |
| CCOC(=O)c1ccc(NC(=O)CC2C(=O)N(c3cccc(C)c3)C(=O)N2CCOC)cc1 (stereo not given) | inconclusive: 4.47 µM [activator, single point] |  |
| CC(C)CNC(=S)NC1CC2CCCC(C1)N2Cc1cccs1 (stereo not given) | inconclusive: 2.59 µM [inhibitor, partial curve] |  |
| CN(C)CCCN(C(=O)c1ccc(S(=O)(=O)N(C)C2CCCCC2)cc1)c1nc2ccc(Br)cc2s1 | inconclusive: 15.8 µM [inhibitor, single point] |  |
| CCCCN1CC(N2CCN(Cc3ccccc3)CC2)CS1(=O)=O (stereo not given) | inconclusive: 3.53 µM [activator, full curve, poor fit] |  |
| COc1cccc(CNc2ncnc3cc(OC)c(OC)cc23)c1 | inconclusive: 0.794 µM [inhibitor, full curve, poor fit] |  |
| COCCOC(=O)c1c(C)oc2ccc(OC(=O)c3ccc4c(c3)OCO4)cc12 | inconclusive: 6.31 µM [activator, single point] |  |
| COc1ccc(CCn2c(O)c(C=Nc3ccc(NC(C)=O)cc3)c(=O)[nH]c2=O)cc1OC | inconclusive: 8.91 µM [inhibitor, single point] |  |
| Cc1ccccc1Nc1c(C)c(C)nc2ncnn12 | inconclusive: 6.31 µM [inhibitor, full curve, poor fit] |  |
| C=CCNC(=S)N/N=C/c1cccc([N+](=O)[O-])c1 | inconclusive: 35.5 µM [inhibitor, single point] |  |
| O=C(CN(C(=O)c1csnn1)c1cccc(C(F)(F)F)c1)NCCc1ccccc1 |  | inactive: 17.9% [at 46.1 µM] |
| CCOc1ccccc1-c1nc(-c2ccc(NC(=O)c3ccc(Br)o3)cc2)no1 | inconclusive: 35.5 µM [inhibitor, single point] |  |
| Cc1csc(NC(=O)CSCC(=O)Nc2ccccc2)n1 | inconclusive: 1.41 µM [activator, partial curve, poor fit] |  |
| Cc1[nH]c2ccccc2c1CCN(Cc1cccnc1)C(=S)Nc1cccc(F)c1 | inconclusive: 25.1 µM [inhibitor, partial curve, poor fit] |  |
| O=c1[nH]c2cc3c(cc2cc1C(c1nnnn1C1CCCCC1)N1CCSCC1)OCCO3 (stereo not given) | inconclusive: 13 µM [inhibitor, partial curve, poor fit] |  |
| O=C(NC(Cc1c[nH]c2ccccc12)C(=O)O)/C(=C/c1ccc2c(c1)OCO2)NC(=O)c1ccccc1 (stereo not given) |  | inactive: 1.34% [at 46.1 µM] |
| NC(=O)C1CCN(C(=O)c2cccc(S(=O)(=O)N3CCc4ccccc4C3)c2)CC1 | inconclusive: 1.78 µM [activator, partial curve, poor fit] |  |
| COc1ccc(C(C[N+](=O)[O-])c2c(C)cc3ccccn23)c(OC)c1 (stereo not given) | inconclusive: 20 µM [inhibitor, single point] |  |
| C=Cc1c(C)/c2[n-]/c1=C\c1[n-]c(c(CC)c1C)/C=c1\[n-]c3c(c1C)C(=O)C(C(=O)[O-])C=3c1[n-]c(c(C)c1CCC(=O)[O-])\C=2.[Cu].[Na+].[Na+] (stereo not given) | active: 31.5 µM |  |
| COc1ccc(O[C@H]2C=C[C@@H](c3ccccc3)O[C@@H]2CO/N=C(\C)CCN2CCCc3nc(C)c(C)cc32)cc1 | inconclusive: 0.266 µM [inhibitor, full curve, poor fit] |  |
| CC(=O)Nc1ccc(NC(=O)C(C)OC(=O)/C(C#N)=C/c2ccc(N(C)C)cc2)cc1 (stereo not given) | inconclusive: 1.58 µM [activator, partial curve, poor fit] |  |

| SMILES | Potency | activity change, negative = inhibition |
| --- | --- | --- |
| COc1ccc(/C=C/C(=O)Oc2ccc(C)c(C)c2)cc1OC |  | inactive: 14.4% [at 46.1 µM] |
| CC(C)CCc1noc(CN(C)CCC2CCOCC2)n1 |  | inactive: -0.423% [at 46.1 µM] |
| O=C(Nc1cccc(-c2nc3ccccc3o2)c1)c1ccc(N2C(=O)C3C4C=CC(C4)C3C2=O)cc1 (stereo not given) | inconclusive: 35.5 µM [inhibitor, single point] |  |
| CCc1nc(N)nc(N)c1-c1ccc(Cl)c([N+](=O)[O-])c1 | inconclusive: 0.631 µM [inhibitor, full curve, poor fit] |  |
| O=C(NCc1cccnc1)c1ccc(NS(=O)(=O)c2ccc(F)cc2)cc1 |  | inactive: -16.2% [at 46.1 µM] |
| O=C(COc1cccc2ccccc12)Nc1ccc(Cl)cc1C(=O)O | inconclusive: 35.5 µM [inhibitor, single point] |  |
| O=C(CN1C(=O)NC2(CCCC2)C1=O)NCc1cccc(Cl)c1 |  | inactive: -1.61% [at 46.1 µM] |
| Cc1cc(C)n(CCCC(=O)O)n1 | inconclusive: 35.5 µM [activator, partial curve, poor fit] |  |
| c1ccc(Cn2nnnc2C(c2ccccc2)N2CCN(c3nc4ccccc4s3)CC2)cc1 (stereo not given) |  | inactive: 23.6% |
| Cc1c(NC(=O)C2CC(c3c(F)cccc3Cl)=NO2)c(=O)n(-c2ccccc2)n1C (stereo not given) |  | inactive: 21.5% |
| COc1ccc2c(c1)C(=O)c1ccccc1CO2 | inconclusive: 5.62 µM [activator, single point] |  |
| COc1ccccc1CC(=O)NC(=O)c1ccccc1O | inconclusive: 1.12 µM [inhibitor, partial curve, poor fit] |  |
| CC1(c2ccccc2)NC(=O)N(CC(=O)Nc2cccc(/C=C/c3ccccn3)c2)C1=O (stereo not given) | inconclusive: 35.5 µM [inhibitor, single point] |  |
| CCOC(=O)c1sc(N(Cc2ccccc2)C(=O)CSc2ncn[nH]2)nc1C |  | inactive: -6.96% |
| CC(C(=O)NCc1ccco1)n1cc([N+](=O)[O-])cn1 (stereo not given) |  | inactive: 0.686% [at 46.1 µM] |
| O=C(Cn1c(=O)n(Cc2ccccc2)c(=O)c2sc3ccccc3c21)Nc1ccc(F)cc1 |  | inactive: -3.59% [at 46.1 µM] |
| O=C(/C=C/c1ccco1)Nc1sc2c(c1C(=O)O)CCC2 | inconclusive: 29.1 µM [inhibitor, single point] |  |
| Cc1ccc(C)n1-c1ccc(C(=O)Nc2ccccc2F)cc1 |  | inactive: -25.6% [at 46.1 µM] |
| Cc1cc(C(=O)CSc2nnc(-c3cccs3)o2)c(C)n1-c1ccccc1 | inconclusive: 29.1 µM [inhibitor, single point] |  |
| Cc1ccc(C)c(S(=O)(=O)N2CCN(C(=O)Cc3sc(C)nc3-c3ccc(F)cc3)CC2)c1 | inconclusive: 14.1 µM [inhibitor, single point] |  |
| CC1=C(C(=O)N2CCN(c3ccc(Cl)cc3)CC2)C2(CCC(C)CC2)OC1=O (stereo not given) | inconclusive: 2.51 µM [activator, single point] |  |
